# Patent publication US20210177881A1, “MEDICAMENT FOR PREVENTING AND/OR TREATING PAIN AND/OR FEVER, COMPOSITE PRODUCT AND USE THEREOF” (SHANGHAI TONGLIAN PHARMACEUTICAL CO., LTD., priority 2018, published 2021)
# System: rats with tibial cancer pain
# Experiment: van Frey mechanical pain threshold in rats with tibial cancer pain (Walker256)
# Assay type: in vivo, rat
# Conditions: 80 mg/kg intragastric, 12 days
# Description: Walker rat breast cancer cells were purchased from Shanghai Institute of Biomedical Engineering. The abdominal cavity of female Wistar rats of 70-80 g was inoculated with 1 ml of ascites tumor (about 2×10^7 cells /ml). After 7-10 days, 5 ml of ascites was extracted and centrifuged for 3 minutes (1300 rpm). After precipitation, washing was performed with 10 ml PBS, and then centrifuged and precipitated again. Then, resuspending was performed with PBS, counting was performed, the cell concentration was adjusted to 1×10^7 cells/ml by PBS and placed in an ice box for later use.
# Rats were anesthetized by intraperitoneal injection of 10% chlorate hydrate (4 ml/kg body weight), a skin was prepared at the right knee joint, and the skin was disinfected with 75% alcohol. The knee joint was fixed with the left hand to make the skin on its surface tense. […]
# Rats were divided into two groups: a PBS injection control group and a Walker256 model group. The radiation paw withdrawal latency (PWL) was measured before modeling as the basic pain threshold, and the PWL was measured every other day after modeling as the thermal hyperalgesia threshold. At the same time, the mechanical pain caused by von Frey filament was measured. The threshold of mechanical pain was measured before modeling as the basic pain threshold, and the threshold of mechanical allodynia was measured every other day after modeling. […]
structure (smiles),measurement,value
"CN1CC[C@]23c4c5ccc(O)c4O[C@H]2[C@@H](O)C=C[C@H]3[C@H]1C5.Cl [positive control, morphine hydrochloride]","analgesic rate, same side",188.9%
